# Test results from PubChem BioAssay AID1347075 (National Center for Advancing Translational Sciences (NCATS), 2019).
# Where “and” joins values, the source holds several entries; their conditions need not be identical. Equal entries are not always repeated. Hit rate of the full screen: of about 400,000 compounds, about 5,500 (1.4%) were called active. The inconclusive results got no clear call from the source; some entries with a clear call stand among them for comparison. The call rests on the fitted dose curve; in most records, active means well fitted cell-killing curve with a large enough effect; inconclusive means small, poorly fitted or top-dose-only effect, or effect the other way; inactive means flat fitted curve, though single readings scatter. Potencies beside an inconclusive call are fits to weak or partial responses and may not hold up.
# Experiment: qHTS assay for MDR1-selective chemotherapeutics: Primary screen using the parental adenocarcinoma cell KB-3-1; further: nearly all actives have a fitted effect of over 60% in size
# Details: KB-3-1 viability, CellTiter-Glo ATP luminescence, 72 h; activity change, negative = cytotoxic: at 46.1 µM (top of the series)
# In short: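 Luminescent ATP read-out (CellTiter-Glo) measures survival of drug-naive KB-3-1 cells after 72 h compound exposure at 37 °C. Titration series was screened from lowest to highest concentration, with DMSO vehicle plates as background controls.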
# On the % scale 0 is the no-effect control and ±100 the full control effect; potency means the concentration at half of the fitted maximal effect.
Structure (SMILES),Potency,"activity change, negative = cytotoxic"
CCCCn1cnc2c(SCc3cccc(F)c3)nc(N)nc21,"inconclusive: 13 µM [rising, partial curve]",
C/C(CC(=O)Nc1ccc(Cl)c(C(F)(F)F)c1)=N\NC(=O)c1cccc(O)c1,,inconclusive: 32.4%
COc1cccc(Cn2cnc3c(NS(=O)(=O)c4cccc(Cl)c4Cl)c(C)c(C)cc32)c1,"inconclusive: 18.4 µM [cytotoxic, single point]",
Cc1cccc(-n2ncc3c(N)ncnc32)c1,"inconclusive: 29.1 µM [cytotoxic, single point]",
COc1ccc(S(=O)(=O)c2c(Nc3c(C)cccc3C)sc(C(=O)c3ccc4c(c3)OCO4)c2N)cc1,active: 3.66 µM,
COc1ccc(CN(C)c2ccc(-c3nc(-c4ccccc4)no3)cc2[N+](=O)[O-])cc1,inactive,
Cc1cccc(Nc2nc(N)nc(CN3CCN(c4ccc(F)cc4)CC3)n2)c1,,inconclusive: -37.9% [cytotoxic]
COc1ccc2c(CC(=O)Nc3ccc(C)cc3)coc2c1,inactive,
CCn1c(SCC(=O)NCC2CCCO2)nnc1-c1ccccc1OC (configuration not stated),"inconclusive: 23.1 µM [rising, partial curve, poor fit]",
CCOc1ccccc1NC(=O)c1ccc2nc[nH]c2c1,"inconclusive: 29.1 µM [rising, single point]",
O=C1CN(C(=O)COc2ccc(Br)cc2Br)c2ccccc2N1,inactive,
COC(=O)c1c(NC(=O)/C=C/C(=O)O)sc(Cc2ccccc2)c1C,"inconclusive: 29.1 µM [cytotoxic, single point]",
CC(C)Sc1nc(N2CCOCC2)c2c(c1C#N)CC(C)(C)SC2,"inconclusive: 18.4 µM [cytotoxic, partial curve, poor fit]",
Cn1c(C(c2cc3ccccc3n2C)c2cc3ccccc3n2C)cc2ccccc21,active: 18.4 µM,
CCN1C(=O)CC(N2CCN(c3ccc(C(=O)c4ccncc4)cc3)CC2)C1=O (configuration not stated),"inconclusive: 16.4 µM [cytotoxic, single point]",
O=C(Nc1nccs1)C1CC(=O)N(c2ccccc2)C1 (configuration not stated),"inconclusive: 20.6 µM [rising, single point]",
O=C(c1ccc(Cl)cc1Cl)N1CCOCC1,"inconclusive: 29.1 µM [rising, single point]",
Fc1ccc(-c2nc3c(Cl)cc(C(F)(F)F)cn3c2Cc2ccsc2)cc1,"inconclusive: 14.6 µM [cytotoxic, single point]",
c1ccc(CN2CCC(Nc3nc(-c4ccccc4)nc4ccccc34)CC2)cc1,"inconclusive: 29.1 µM [cytotoxic, single point]",
C/C(NCCc1ccc(O)cc1)=C1/CCOC1=O,"inconclusive: 29.1 µM [rising, single point]",
COc1ccc(-c2ccccc2)cc1NCc1ccc(OC)c(OC)c1,inactive,
Cn1nnnc1SCC(=O)Nc1nc2c(F)c(F)c(F)cc2s1,"inconclusive: 16.4 µM [rising, partial curve, poor fit]",
COc1ccccc1NC(=O)c1ccc(NC(=O)c2ccc(=O)[nH]c2)cc1,"inconclusive: 29.1 µM [cytotoxic, single point]",

Structure (SMILES),Potency,"activity change, negative = cytotoxic"
CCn1c(SCC(=O)Nc2nc(-c3ccc(C)cc3)cs2)nnc1-c1ccccc1,"inconclusive: 16.4 µM [cytotoxic, partial curve, poor fit]",
CCOc1cc(CNC(=O)c2ccccc2NC(=O)c2nsc3ccccc23)ccc1OC,inactive,
Cc1ccc(S(=O)(=O)c2nc(S(C)(=O)=O)sc2N2CCOCC2)cc1,"inconclusive: 18.4 µM [cytotoxic, single point]",
CC(=O)N1CCc2c(sc(NC(=O)CCS(=O)(=O)c3ccccc3)c2C(N)=O)C1,"inconclusive: 29.1 µM [cytotoxic, single point]",
Cc1ccc(CN2CCN(C3CCCC3)C(CCO)C2)s1 (configuration not stated),inactive,
Cc1ccc(SC(c2ccc(C)cc2)C(Cn2cncn2)C(=O)c2ccccc2)cc1 (configuration not stated),"inconclusive: 8.2 µM [cytotoxic, partial curve, poor fit]",
O=C(Nc1ccc2ccccc2c1)C(C1CC1)n1c(=O)c(-c2cc3ccccc3[nH]2)nc2ccccc21 (configuration not stated),"inconclusive: 16.4 µM [cytotoxic, single point]",
CCOC(=O)c1ccc(S(=O)(=O)Nc2ccc3cn[nH]c3c2)cc1,"inconclusive: 23.1 µM [cytotoxic, single point]",
CCCc1cc(N2CCN(c3ccccc3)CC2)n2cnnc2n1,"inconclusive: 18.4 µM [cytotoxic, partial curve, poor fit]",
CCOc1ccc(CCNC(=O)Cn2c(-c3cccs3)cc3cc(F)ccc32)cc1OCC,active: 6.51 µM,
CNC(=S)NN=C(C)c1ccc(OC)cc1O,"inconclusive: 0.517 µM [cytotoxic, full curve]",
COc1cc(/C=C/C(=O)OCC(=O)NC(=O)NC(C)C)cc(S(=O)(=O)N2CCc3ccccc32)c1OC,inactive,
CNc1nc(-c2ccc([N+](=O)[O-])cc2)cs1,"inconclusive: 18.4 µM [cytotoxic, partial curve, poor fit]",
CC(C)CCn1c(N2CCN(c3cccc(Cl)c3)CC2)nc2c1c(=O)[nH]c(=O)n2C,"inconclusive: 29.1 µM [cytotoxic, single point]",
CN(C)CCNc1nc(-c2ccccc2F)c2sccc2n1,inactive,
COc1cccc(CN2CCCN(CC(=O)Nc3ccc4c(c3)OCCO4)S2(=O)=O)c1,inactive,
O=c1c2ccccc2nc(SCc2cccc(F)c2)n1Cc1ccco1,"inconclusive: 23.1 µM [cytotoxic, partial curve, poor fit]",
Cc1cccc(N2CCN(S(=O)(=O)c3ccc4c(c3)C(C(C)C)C(=O)N4)CC2)c1C (configuration not stated),"inconclusive: 16.4 µM [cytotoxic, single point]",
O=S(=O)(c1ccc(Oc2ccc(Br)cc2F)nc1)N1CCCCC1,"inconclusive: 18.4 µM [cytotoxic, single point]",
Cc1oc(-c2ccccc2F)nc1CSCC(=O)N1CCN(c2ccccc2)CC1,"inconclusive: 20.6 µM [cytotoxic, single point]",
N/C(=N\OC(=O)c1cccc(Br)c1)c1ccc([N+](=O)[O-])cc1,,inconclusive: -5.66%
COc1ccc(CNc2ccc(-c3ccccc3OC)nn2)cc1,"inconclusive: 16.4 µM [rising, partial curve]",
CCOC(=O)C1=C[C@@H](C(C)(C)C)N(S(=O)(=O)c2ccc(C)cc2)[C@H]1c1cccc2ccccc12,"inconclusive: 29.1 µM [cytotoxic, single point]",

Structure (SMILES),Potency,"activity change, negative = cytotoxic"
COc1cc(/C=N\Nc2ccc([N+](=O)[O-])cc2)ccc1OCC(=O)Nc1ccc(C)c(C)c1,"inconclusive: 20.6 µM [cytotoxic, partial curve, poor fit]",
O=C(Cn1ncc2c3ccccc3n(Cc3ccc(F)cc3)c2c1=O)N1CCN(c2ncccn2)CC1,"inconclusive: 16.4 µM [cytotoxic, partial curve]",
Cc1ccc(SC(=O)COc2ccccc2C)cc1,inactive,
Cc1ccsc1/C=N\NC(=O)Cn1nnc2ccccc21,"inconclusive: 16.4 µM [cytotoxic, single point]",
Clc1ccc(-[n+]2c(-c3cccc(Br)c3)[nH]c3nc4ccccc4nc32)cc1,"inconclusive: 5.17 µM [cytotoxic, full curve]",
CN(C)c1ccc(/C=C/C=N/Nc2nc(N3CCOCC3)nc(N3CCOCC3)n2)cc1,inactive,
CCNC(=O)c1c(NC(=O)Cc2coc3ccc(CC)cc23)sc2c1CCCC2,inactive,
Cc1ccc2c(c1)N(C(=O)N1CCC(C(=O)NCc3ccccc3C)CC1)CC(C)O2 (configuration not stated),inactive,
COc1ccc(-c2oc3ccccc3c(=O)c2OC(C)=O)cc1,"inconclusive: 29.1 µM [cytotoxic, single point]",
Cc1ccc(CNC(=O)CN(C)C2=NS(=O)(=O)c3ccccc32)cc1,"inconclusive: 11.6 µM [cytotoxic, partial curve]",
CC(=O)N1CCCc2cc(S(=O)(=O)N3CCN(c4ccccc4F)CC3)ccc21,"inconclusive: 6.51 µM [cytotoxic, partial curve, poor fit]",
O=C1OCC/C1=C\NCCCN/C=C1\CCOC1=O,inactive,
COc1ccc(/C=C2\CN(Cc3ccccc3)C/C(=C\c3ccc(OC)cc3)C2=O)cc1,"inconclusive: 18.4 µM [cytotoxic, single point]",
CCCCN(C(=O)NC(=O)Nc1nc2ccc(OC)cc2s1)S(C)(=O)=O,"inconclusive: 18.4 µM [cytotoxic, partial curve, poor fit]",
NC(=NCCCCCCN=C(N)/N=C(\N)Nc1ccc(Cl)cc1)/N=C(\N)Nc1ccc(Cl)cc1,"inconclusive: 29.1 µM [cytotoxic, single point]",
CC(=O)N1c2ccc(S(=O)(=O)NCc3ccccc3Cl)cc2CC1C (configuration not stated),"inconclusive: 20.6 µM [cytotoxic, single point] and inconclusive: 920 nM [cytotoxic, partial curve, poor fit]",
COc1ccc(NC(=O)CC(C)=O)c(OC)c1,inactive,
Cc1cc(C)c(S(=O)(=O)NCC2CCC(C(=O)NCCCN3CCC(C)CC3)CC2)c(C)c1 (configuration not stated),inactive,
O=C(Cc1ccccc1)NNC(=O)c1ccccc1C(=O)O,inactive,
CC(C)(C)C(=O)N1CCc2cc(-c3csc(N)n3)ccc21,"inconclusive: 25.9 µM [rising, partial curve, poor fit]",
COc1cccc2c1C(CCCC(=O)O)CCC2 (configuration not stated),inactive,

# Part of the list above, set out differently.
Structure (SMILES) | Potency | activity change, negative = cytotoxic
O=C(Cn1ncc2c3ccccc3n(Cc3ccc(F)cc3)c2c1=O)N1CCN(c2ncccn2)CC1 | inconclusive: 16.4 µM [cytotoxic, partial curve] | 
Cc1ccc(CNC(=O)CN(C)C2=NS(=O)(=O)c3ccccc32)cc1 | inconclusive: 11.6 µM [cytotoxic, partial curve] | 
O=C(Cc1ccccc1)NNC(=O)c1ccccc1C(=O)O | inactive | 
